# Measured values from PubChem BioAssay AID1439 (NMMLSC, 2008).
# The chains behind the UniProt entries cited, without tags or fusion partners.
# UniProt P09471, whole entry, looked up: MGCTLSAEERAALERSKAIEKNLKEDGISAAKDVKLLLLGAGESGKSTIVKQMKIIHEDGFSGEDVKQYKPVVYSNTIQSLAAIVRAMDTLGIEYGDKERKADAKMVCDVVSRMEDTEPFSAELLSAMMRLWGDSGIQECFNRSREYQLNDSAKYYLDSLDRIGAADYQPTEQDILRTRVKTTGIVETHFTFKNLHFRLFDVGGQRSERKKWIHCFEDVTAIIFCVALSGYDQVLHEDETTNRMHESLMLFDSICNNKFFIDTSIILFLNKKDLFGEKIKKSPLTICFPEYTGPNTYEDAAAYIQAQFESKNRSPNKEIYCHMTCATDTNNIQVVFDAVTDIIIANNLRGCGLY
# In all, about 220,000 compounds went through this assay and about 770 (0.35%) were called active. The shares of active, inactive and inconclusive entries below differ from those in the screen. Rule as the data show it: active = binding response below about 49% or above about 150%; inconclusive = no clear call, values can overlap the other calls; inactive = in between.
# Target: Guanine nucleotide-binding protein G(o) subunit alpha (Homo sapiens) (UniProt P09471)
# Experiment: RGS7-Galphao binding modulators, primary screen, biochemical, multiplexed bead flow cytometry (AID 1439);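 also: fluorescent Galphao held in activated GDP-AlF4 state binding bead-coupled RGS7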
# Settings: at 10 µM, actives lie on both sides
row,Structure (SMILES),binding response (% of control)
1,CC(C)n1c(SCC(=O)Nc2ccccc2)nc2c1c(=O)[nH]c(=O)n2C,inconclusive: 69.9%
2,O=C(NNC1CC(=O)N(c2ccc(Br)cc2)C1=O)c1cccs1 (stereo unspecified),inconclusive: 116%
3,Cc1cccc(NC(=O)c2ccccc2OCC(=O)N2CCCC2)c1C,inconclusive: 117%
4,CCC(COC(C)=O)Nc1nc2c([nH]1)c(=O)n(C)c(=O)n2C (stereo unspecified),inconclusive: 129%
5,C/C=C\C=C\C(=O)N1CC2(CC(c3cccc(NC(=O)/C(C)=C\C)c3)=NO2)C[C@H]1C(N)=O (stereo partly specified),inconclusive: 80%
6,O=C(O)c1cc(NCc2ccc3c(c2)OCO3)ccc1N1CCOCC1,inactive: 101%
7,CC1(C)CC(=O)C(N=Nc2cccc(F)c2C#N)=C(O)C1,inconclusive: 104%
8,Cc1cccc(C)c1OC(=O)CSc1nnc(-c2ccccc2O)o1,inactive: 100%
9,COCCn1c(C)cc(C(=O)COC(=O)c2ccc(Br)o2)c1C,inactive: 95.7%
10,O=C(C/C=N\OCc1ccc([N+](=O)[O-])cc1)Nc1ccc(F)cc1F,inactive: 91.3%
11,CCOC(=O)c1ccc(Cl)c(NC(=O)c2cccnc2)c1,inactive: 103%
12,Cc1ccc(NC(=O)c2c(-c3ccccc3Cl)noc2C)nc1,inconclusive: 94.5%
13,Cc1cc(C)c2c(N)c(-c3nnc(SCc4ccc(Cl)cc4)n3C)sc2n1,inconclusive: 113%
14,O=C(/C=C/Nc1ccccc1O)c1ccco1,inconclusive: 223%
15,CC(C)Cn1c(N)c(C(=O)COC(=O)c2ccc([N+](=O)[O-])o2)c(=O)n(C)c1=O,inactive: 104%
16,COc1ccccc1NC(=O)Nc1cc(F)ccc1F,inconclusive: 83%
17,O=C(Nc1cccnc1)c1ccc(Cl)c(S(=O)(=O)N2CCc3ccccc32)c1,inactive: 121%
18,Nc1nc(Nc2ccccc2)n[nH]1,inconclusive: 63.8%
19,CCN1/C(=C/C(=S)Nc2ccccc2)Sc2ccccc21,inconclusive: 116%
20,COc1ccc(-n2c(-c3ccccc3)c[n+]3c2CCC3)cc1,inconclusive: 95.7%
21,COc1ccc(-c2noc(CCC(=O)O)n2)cc1,inactive: 95.1%
22,CCCCNC(=O)Nc1nc2ccccc2s1,inconclusive: 90%
23,COc1cc(CN2CCN(Cc3ccc(C)cc3)CC2)c([N+](=O)[O-])cc1OC,inconclusive: 106%

row,Structure (SMILES),binding response (% of control)
1,CC(C)c1ccc(C(=O)N2CCN(c3cnn(C)c(=O)c3Cl)CC2)cc1,inactive: 102%
2,Nc1nonc1-n1nnc(C(=O)N/N=C/c2ccccc2Cl)c1COc1ccc(F)cc1,inconclusive: 95%
3,Cc1cccc(C)c1NC(=S)N(CCCN1CCCCC1)Cc1ccco1,inactive: 107%
4,NS(=O)(=O)c1ccc(NNC(=O)c2sccc2Cl)cc1,inconclusive: 113%
5,COc1ccccc1CCNS(=O)(=O)c1ccc(C(=O)O)n1C,inconclusive: 9.26%
6,O=P(c1ccccc1)(c1ccccc1)c1nc(-c2ccccc2)oc1N1CCOCC1,inconclusive: 110%
7,CCN1CCN(C(=S)Nc2ccc3nc4n(c(=O)c3c2)CCCCC4)CC1,inconclusive: 103%
8,COc1ccc2nc(SCC(=O)Nc3ccccc3C#N)[nH]c2c1,inactive: 97.3%
9,CCCN(Cc1cc2cc(C)ccc2[nH]c1=O)C(=O)c1cccc([N+](=O)[O-])c1,inconclusive: 121%
10,COc1ccc(NC(=O)CC2SC(=N)N(c3ccccc3)C2=O)c(OC)c1 (stereo unspecified),active: 4.07%
11,CNC(=S)N(CCc1ccc(OC)c(OC)c1)C1CC(=O)N(c2ccccc2)C1=O (stereo unspecified),inconclusive: 88.5%
12,CN(Cc1cnn(C)c1)C(=O)CC1C(=O)NCCN1Cc1cccc(Oc2ccccc2)c1 (stereo unspecified),inconclusive: 18.1%
13,O=C(Nc1ccc(N2CCCCC2)cc1)c1ccc2ccccc2n1,inconclusive: 70.8%
14,Cc1ccc(OCC(=O)NC(C)c2ccccc2)c([N+](=O)[O-])n1 (stereo unspecified),inconclusive: 106%
15,O=C(c1cc([N+](=O)[O-])[nH]n1)N1CCSCC1,inconclusive: 87.1%
16,CCN(CC)c1ccc(/C=N/n2c(-c3ccccc3Br)n[nH]c2=S)cc1,inconclusive: 95.6%
17,CCc1ccc2[nH]c(O)c(N=NC3=NC(=O)CS3)c2c1,inconclusive: 116%
18,O=C(N/N=C/c1ccccc1C(F)(F)F)c1ccc(O)cc1,inconclusive: 96.1%
19,CCCCCCN=C(C)c1ccccc1O,inconclusive: 160%
20,CCOC(=O)Cc1ccc(NC(=O)c2ccc([N+](=O)[O-])cc2)cc1,inconclusive: 145%
21,O=C(NN1C(=O)c2ccccc2C1=O)c1ccncc1,inconclusive: 118%
22,OCCC1CN(Cc2cn[nH]c2C2CCCCC2)CCN1Cc1ccccc1 (stereo unspecified),inconclusive: 130%
23,O=C(Nc1cccc([N+](=O)[O-])c1)c1cc2ccccc2cc1O,inconclusive: 93.9%

# Ordered by length of the SMILES (smallest number first): 3 of the compounds above
row,Structure (SMILES),binding response (% of control)
15,O=C(c1cc([N+](=O)[O-])[nH]n1)N1CCSCC1,inconclusive: 87.1%
2,O=C(NNC1CC(=O)N(c2ccc(Br)cc2)C1=O)c1cccs1 (stereo unspecified),inconclusive: 116%
2,Nc1nonc1-n1nnc(C(=O)N/N=C/c2ccccc2Cl)c1COc1ccc(F)cc1,inconclusive: 95%

# More records.

row,Structure (SMILES),binding response (% of control)
1,CCOc1ncccc1C(=O)Nc1cccc(Cl)c1Cl,inconclusive: 87.9%
2,COC(=O)CN1C(=O)N/C(=C/c2ccc(OC)c(C)c2OC)C1=O,inactive: 103%
3,N#CC(C#N)=Cc1cccn1-c1ccc(S(N)(=O)=O)cc1,inactive: 92.2%
4,O=C(Cc1c(F)cccc1Cl)Nc1ncc([N+](=O)[O-])s1,inconclusive: 87.4%
5,CSc1sc(C(=O)N(C)C)c2c1S(=O)(=O)N(C)c1ccccc1-2,inconclusive: 164%
6,CC(=O)Nc1ccc(/C=C2\Sc3ccccc3C2=O)cc1,inconclusive: 113%
7,COC(=O)c1oc2ccccc2c1NC(=O)c1ccccc1O,inconclusive: 99.4%
8,Cn1cc([N+](=O)[O-])c(C(=O)NCc2ccccc2)n1,inconclusive: 132%
9,COc1ccc2c(c1)c(C(=O)CN1CCc3ccccc3C1)c(C)n2C,inconclusive: 115%
10,C=CCc1c(C)nc(N2CCSCC2)[nH]c1=O,inconclusive: 99.7%
11,Cc1cc(/C=C2\C(=N)N3N=CSC3=NC2=O)c(C)n1Cc1ccccc1,inconclusive: 76.8%
12,NNC(=O)c1oc2ccccc2c1-n1cccc1,inconclusive: 97.6%
13,CC(C)(C)c1ccc(N=C2SCC(=O)N2Cc2cccs2)cc1,inconclusive: 91.3%
14,CCOC(=O)c1cnc(SCC)[nH]c1=O,inconclusive: 115%
15,COc1ccc(N2C(=O)[C@@H]3[C@H](C2=O)[C@H]2C=CC=NN2[C@@H]3C(=O)Nc2ccc(Cl)cc2)cc1,inconclusive: 113%
16,CC12COC3(C(=O)Nc4ccc(Cl)cc4)CC1CCC32C (stereo unspecified),inactive: 99.2%
17,CC(NC(=O)c1cc(S(=O)(=O)N(C)C)ccc1N1CCCC1)C1CC2CCC1C2 (stereo unspecified),inactive: 97%
18,COCC(=O)N(C)C1(c2nnnn2CCOC(=O)Nc2ccc(Cl)cc2)CCCCC1,inconclusive: 120%
19,CCOc1ccc(C(=O)NC(C(=O)NCC2CCCO2)C(C)C)cc1 (stereo unspecified),inconclusive: 92.1%
20,CC1(c2nnc(-c3ccccc3)o2)CC(c2ccncc2)=NO1 (stereo unspecified),inconclusive: 109%
21,Cc1cccc(C)c1-n1cccc1/C=C1/C(=N)N2C(=NC1=O)SN=C2S(C)(=O)=O,inactive: 103%
22,Cc1cc(=O)[nH]c(SCC(=O)Nc2cccc3ccccc23)c1C#N,active: 184% [activator]
23,COCCN(Cc1cc2cc3c(cc2nc1Cl)OCO3)C(=O)c1cccc(C)c1,inconclusive: 149%

# Random excerpt: 2 records from the list
row,Structure (SMILES),binding response (% of control)
9,COc1ccc2c(c1)c(C(=O)CN1CCc3ccccc3C1)c(C)n2C,inconclusive: 115%
2,COC(=O)CN1C(=O)N/C(=C/c2ccc(OC)c(C)c2OC)C1=O,inactive: 103%

# The list continues.

row,Structure (SMILES),binding response (% of control)
1,COc1ccccc1C1=NOC(COC(=O)c2ccc([N+](=O)[O-])cc2)C1 (stereo unspecified),inconclusive: 126%
2,Brc1ccc(C2=Nn3c(Cn4nnc5ccccc54)nnc3SC2)cc1,inconclusive: 118%
3,CC(C(=O)N1c2ccc(F)cc2CCC1C)N1C(=O)c2ccccc2C1=O (stereo unspecified),inactive: 96.8%
4,CC(C)CC(=O)Nc1sc2c(c1C(=O)O)CCCCC2,inconclusive: 106%
5,Cc1ncc(CN2CCC(CO)(CCOc3ccccc3)CC2)s1,inconclusive: 85.7%
6,COC(=O)c1cnn(-c2ccccc2)c1/C=N/NC(=S)Nc1ccc(Cl)cc1,inconclusive: 96.5%
7,Fc1ccc(C2=CC(c3ccco3)n3nnnc3N2)cc1 (stereo unspecified),inconclusive: 76.6%
8,COc1ccc(/C=N/NC(=O)c2ccn[nH]2)cc1CN1CCOCC1,inconclusive: 91.6%
9,CCCCCCCCNC(=S)NCCN1CCCCC1,inactive: 101%
10,N/C(=N\NC(=O)c1cccs1)c1cc2cc(Cl)ccc2oc1=O,inconclusive: 106%
11,O=C(c1cc(-c2ccncc2)nc2ccc(Cl)cc12)N1CCN(Cc2ccc3c(c2)OCO3)CC1,inconclusive: 103%
12,CC1=CC(C)C2(CO)COC(c3ccccc3O)C1C2C (stereo unspecified),inactive: 99.9%
13,CC(=O)N1N=C(c2ccc(C)c([N+](=O)[O-])c2)OC1(C)C,inconclusive: -520%
14,CCN(CC)C(=O)CC(c1cc(OC)c(OC)c(OC)c1)c1c(O)cc(OC)cc1OC (stereo unspecified),inconclusive: 106%
15,Cc1ccc(NC(=S)NNC(=O)CSc2nc3ccccc3c(=O)n2-c2ccc(C)cc2)cc1,inactive: 96.4%
16,Cc1ccc(S(=O)(=O)CCC(=O)Nc2ccc(F)cc2)cc1,inconclusive: 109%
17,Cn1c(=O)c2c(ncn2CCc2ccccc2)n(C)c1=O,inconclusive: 120%
18,CCN(c1ccccc1)S(=O)(=O)c1ccc(C(C(=O)OC)C(=O)OC)c([N+](=O)[O-])c1,inconclusive: 122%
19,C=C(C)C(=O)Nc1cccc(C2=NOC3(C2)C[C@@H](C(N)=O)N(C(=O)/C=C/CC)C3)c1 (stereo partly specified),inconclusive: 121%
20,O=C(NCC(c1cccs1)N1CCOCC1)c1cc(-c2ccccn2)nc2ccccc12 (stereo unspecified),inconclusive: 102%
21,COc1ccc(/C=C/C(=O)C(C)(C)C)cc1OC,inconclusive: 94%
22,CSc1nc(N)c(C(=O)NC2CCCCC2)s1,inconclusive: 17.8%
